Source: publication PMC6009973 (Journal of Enzyme Inhibition and Medicinal Chemistry, 2017)

By UniProt entry, the sequences of proteins in these tests, tags left out. Residues count along the entry.
UniProt A0A0H2YPC2, 1-190: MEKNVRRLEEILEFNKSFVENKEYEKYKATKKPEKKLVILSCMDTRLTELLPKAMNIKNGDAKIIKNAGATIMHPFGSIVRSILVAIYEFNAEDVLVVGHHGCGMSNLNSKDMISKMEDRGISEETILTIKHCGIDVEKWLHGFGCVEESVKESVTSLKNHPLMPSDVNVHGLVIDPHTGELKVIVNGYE

Molecular target: T1, CpeCA (Clostridium perfringens, UniProt A0A0H2YPC2)
T1 construct: gene CPF_0414
Details: read-out: CpeCA^bβ; CO2 1.7-17 mM, 20 mM TRIS pH 8.3, 20 mM Na2SO4, 15 min pre-incubation at room temperature; errors 5-10%

Compound	Ki [nM]
CC(=O)Nc1nnc(S(N)(=O)=O)s1 [AAZ, acetazolamide]	49.1
CCN[C@H]1C[C@H](C)S(=O)(=O)c2sc(S(N)(=O)=O)cc21 [DZA, dorzolamide]	37.4
